Assay results as given in PubChem BioAssay AID540276 (National Center for Advancing Translational Sciences (NCATS), 2011).
Among all 300,000 compounds or so, about 5,400 (1.8%) were called active. This list was built around the results that the source calls inconclusive (neither active nor inactive); the mix of calls is not that of the screen. Calls follow the shape of the full dose curve; tested in HEK293 cells. A potency beside an inconclusive call is a rough fit, not a confirmed value.

Experiment: qHTS for inhibitors of binding or entry into cells for Marburg Virus
Details: Marburg virus pseudotyped entry inhibition, cell reporter; activity change, negative = inhibition: at 37.8 µM (top of the series) unless noted
% is scaled to controls: 0 for no effect and ±100 for the full control effect; potency is read from the fitted curve at half-maximal effect.

Row | Compound | Potency | activity change, negative = inhibition
1 | O=C(CCc1ccccc1)NC(NC(=S)Nc1ccc(Br)cc1)C(Cl)(Cl)Cl (stereo not drawn) | inconclusive: 9.2 µM [inhibitor, partial curve] | –
2 | COCCn1c(-c2ccc(-c3ccc([N+](=O)[O-])cc3Br)o2)nc2c1c(=O)[nH]c(=O)n2CC(C)C | inconclusive: 35.5 µM [inhibitor, single point] | –
3 | O=C(Nc1nnc(C2=COCCO2)o1)c1ccc(S(=O)(=O)N2CCCC2)cc1 | – | inactive: 2.8% [at 46.1 µM]
4 | CCCC(c1nnnn1Cc1ccc(F)cc1)N1CCN(C)CC1 (stereo not drawn) | – | inactive: 17.4%
5 | O=C(Nc1ccc2c(c1)CCC2)c1ccccc1 | inconclusive: 10 µM [inhibitor, partial curve, poor fit] | –
6 | Cc1cc(C(=O)COC(=O)CCC(=O)c2ccc3c(c2)OCCO3)c(C)n1Cc1ccco1 | inactive | –
7 | CCOC(=O)c1n[nH]c2ccccc12 | inactive | –
8 | OCC1(Cc2ccc(F)cc2)CCCN(CCc2ccccc2)C1 (stereo not drawn) | inconclusive: 7.94 µM [inhibitor, partial curve, poor fit] | –
9 | CCOC(=O)COc1ccc(CC)cc1C(=O)c1ccn2nc(-c3ccc(C)cc3)cc2n1 | inconclusive: 8.91 µM [inhibitor, single point] | –
10 | O=C(/C=C/c1cccc([N+](=O)[O-])c1)N1CCOCC1 | inconclusive: 1.41 µM [activator, partial curve, poor fit] | –
11 | COc1ccccc1OCc1nnc(SCC(=O)Nc2nnc(C3CC3)s2)n1C | – | inactive: -15.3% [at 46.1 µM]
12 | COc1ccc(/C=C2\CCc3ccccc3C2=O)cc1CN1CCOCC1 | inconclusive: 14.1 µM [inhibitor, partial curve, poor fit] | –
13 | O=C(NC(=S)Nc1cccc(Cl)c1N1CCCCC1)c1ccco1 | inconclusive: 5.8 µM [inhibitor, single point] | –
14 | Cc1ccc(-c2csc(N(C)C(=O)c3c(C)nn(-c4ccccc4)c3Cl)n2)cc1 | inconclusive: 18.3 µM [inhibitor, single point] | –
15 | Cc1cc2cc3c(cc2nc1SCC(=O)N1CCOCC1)OCO3 | – | inactive: 19.8% [at 46.1 µM]
16 | COc1ccc(S(=O)(=O)NC(C)(C)CO)cc1-c1nnc2c3ccccc3c(C)nn12 | inconclusive: 14.1 µM [activator, single point] | –
17 | Oc1c(Br)cc(/C=N/Nc2nncc3ccccc23)cc1Br | – | inactive: 21.9% [at 46.1 µM]
18 | CCN(CC)C(=O)C(=O)c1cn(CC(=O)NCc2ccc3c(c2)OCO3)c2ccccc12 | inconclusive: 11.2 µM [inhibitor, partial curve, poor fit] | –
19 | Cc1cc(C)c(NC(=O)CNC(=O)COC(=O)/C=C/c2cccs2)c(C)c1 | – | inactive: 8.83%
20 | Cc1cc(=O)oc2cc(OCC(=O)NC3CC(C)(C)NC(C)(C)C3)ccc12 | – | inactive: -8.39% [at 46.1 µM]
21 | CCOc1ccc(NC(=O)CSc2nc3ccccc3nc2N2CCOCC2)cc1 | inconclusive: 6.31 µM [inhibitor, single point] | –
22 | CC(=O)NCCc1ccc(C(=O)COC(=O)c2ccco2)cc1 | – | inactive: 12.6%
23 | CCOC(=O)c1cnc2ccc(Cl)cc2c1N1CCN(C)CC1 | – | inactive: -14.5%

Single records (already shown).
`O=C(/C=C/c1cccc([N+](=O)[O-])c1)N1CCOCC1` is listed with Potency: inconclusive: 1.41 µM [activator, partial curve, poor fit]
`COc1ccccc1OCc1nnc(SCC(=O)Nc2nnc(C3CC3)s2)n1C` is listed with activity change, negative = inhibition: inactive: -15.3% [at 46.1 µM]

Next part.

Row | Compound | Potency | activity change, negative = inhibition
24 | CCCN(CCC)CCCNC(=O)c1ccc2c(Cl)c3c(nc2c1)CCC3 | inconclusive: 35.5 µM [inhibitor, single point] | –
25 | CCCCc1nc2c(c3c1C[C@H](C)OC3)CN(C(=O)Cc1cccs1)CC2 | inconclusive: 0.596 µM [inhibitor, partial curve, poor fit] | –
26 | CC(C)(C)c1ccc(C(=O)NNC(=O)c2ccccc2Br)cc1 | – | inactive: -22.3%
27 | O=C(CCl)N1c2ccccc2SCC1c1ccccc1 (stereo not drawn) | inconclusive: 20 µM [inhibitor, single point] | –
28 | Cc1ncc([N+](=O)[O-])n1CCOC(=O)c1cc(Cl)cc(Cl)c1N | – | inactive: -9.35%
29 | CN1CCc2c(sc3c2C(=O)NC(/C=C\c2ccccc2)N3)C1 (stereo not drawn) | – | inactive: 16.4% [at 14.2 µM]
30 | S=C(NCCc1ccccc1)N1CCN(C(=S)NCCc2ccccc2)CC1 | inconclusive: 35.5 µM [activator, single point] | –
31 | Cc1cccc(N(C)S(=O)(=O)c2ccc3[nH]cc(C(=O)N4CCOCC4)c(=O)c3c2)c1 | inconclusive: 28.2 µM [inhibitor, single point] | –
32 | Cc1cc(C)c2nc(-c3ccccn3)cc(C(=O)n3cccn3)c2c1 | inconclusive: 3.55 µM [activator, single point] | –
33 | CCCn1nnc(NC(=O)c2cccc(Cl)c2)n1 | inconclusive: 35.5 µM [activator, single point] | –
34 | CCN1C(=O)N[C@@H](c2cccc(C(F)(F)F)c2)[C@@H](C(=O)OC)[C@H]1C | inconclusive: 1.19 µM [activator, single point] | –
35 | CCc1ccc2n(-c3ccc(OC)cc3)c([S-])c(C(=O)Nc3cc(C)cc(C)c3)[n+]2c1 | – | inactive: 26.1% [at 46.1 µM]
36 | O=C(COC(=O)C1CCN(S(=O)(=O)c2ccc3c(c2)OCCO3)CC1)Nc1cc(C(F)(F)F)ccc1Cl | inconclusive: 5.62 µM [activator, single point] | –
37 | CSc1nnc(NC(=O)c2cc(=O)c3cc(C)cc(C)c3o2)s1 | – | inactive: -1.82%
38 | CC(C)CCNC(=S)Nc1ccc(Br)cc1 | inconclusive: 29.1 µM [inhibitor, partial curve, poor fit] | –
39 | CCOC(=O)C(/C=C(\C#N)C(=O)OCC)=C(/N)N1CCN(c2c(C)cccc2C)CC1 | inconclusive: 6.31 µM [inhibitor, single point] | –
40 | O=C(Nc1cccc2c1CCCC2)C1CCN(c2nnnn2-c2ccccc2)CC1 | inconclusive: 1.46 µM [inhibitor, partial curve, poor fit] | –
41 | CCC(=O)Nc1ccc(-c2cc3ccccc3oc2=O)cc1 | inconclusive: 3.55 µM [activator, partial curve, poor fit] | –
42 | Cc1[nH]c(=O)[nH]c(=O)c1/C=N/NC(=O)CCCCCNC(=O)OC(C)(C)C | inconclusive: 5.62 µM [activator, single point] | –
43 | Cc1cc(NC(=O)c2ccccc2F)cc(C)c1OCC(=O)N1CCOCC1 | inconclusive: 0.224 µM [activator, full curve, poor fit] | –
44 | COc1ccc(NC(=O)c2[nH]c(C)c(C(C)=O)c2C)cc1Cl | inconclusive: 35.5 µM [activator, single point] | –
45 | c1ccc2c(C3=NNC(=NC4CC4)SC3)c[nH]c2c1 | inconclusive: 2.82 µM [inhibitor, partial curve, poor fit] | –
46 | O=C(/C=C/c1ccccc1)NC(NC(=S)Nc1cc(Cl)ccc1Cl)C(Cl)(Cl)Cl (stereo not drawn) | inconclusive: 14.6 µM [inhibitor, partial curve, poor fit] | –

Row | Compound | Potency | activity change, negative = inhibition
47 | COc1cccc(OC)c1C(=O)Nn1c(C2CCC2)nc2ccccc2c1=O | inconclusive: 0.58 µM [inhibitor, partial curve, poor fit] | –
48 | Cc1ccc(C(=O)N2CCN(c3ccc([N+](=O)[O-])cc3-n3cccc3)CC2)cc1 | inconclusive: 35.5 µM [inhibitor, single point] | –
49 | CCCN(CCC)C(=O)CSc1nc2n[nH]c(C)c2c(=N)n1-c1ccc(OCC)cc1 | inconclusive: 11.2 µM [inhibitor, partial curve, poor fit] | –
50 | O=C(Nc1ccccc1Br)c1cc(=O)c2ccccc2o1 | inconclusive: 15.8 µM [inhibitor, single point] | –
51 | Cc1nc(-c2ccc(NC(=O)C(C)(C)C)cc2)c(-c2ccccc2)o1 | inconclusive: 35.5 µM [inhibitor, single point] | –
52 | CCOCCOC(=O)c1[nH]c2c(c1C)C(=O)CC(c1cccs1)C2 (stereo not drawn) | inconclusive: 3.26 µM [inhibitor, partial curve, poor fit] | –
53 | Cc1ccccc1NC(=O)c1sc2nc3n(c(=O)c2c1C)N=C(c1ccccc1)CS3 | – | inactive: -8.64% [at 46.1 µM]
54 | CCc1nnc(NC(=O)CSc2nnc(C(C)NC(=O)c3ccccc3)n2C)s1 (stereo not drawn) | – | inactive: -25.2% [at 46.1 µM]
55 | Cc1nc(SCC(=O)N(CC(C)C)C2CCS(=O)(=O)C2)c2c(C)c(C)sc2n1 (stereo not drawn) | inconclusive: 25.1 µM [inhibitor, single point] | –
56 | COc1cccc(/C=C/C(=C2/C(=O)N(c3ccccc3)N=C2C)c2ccc(C)cc2)c1OC | – | inactive: 17.9%
57 | N#Cc1cnn2ccc(-c3ccc4c(c3)CCC4)nc12 | inconclusive: 35.5 µM [inhibitor, single point] | –
58 | CCCNS(=O)(=O)c1ccc(OCC(=O)N2CCN(c3ccccc3)CC2)cc1 | – | inactive: -10.8% [at 46.1 µM]
59 | COc1cc(OC)c(CN2CCCCCCC2)cc1Br | – | inactive: -14.1%
60 | COc1ccccc1-c1nc2cc3ccccc3cc2nc1-c1ccccc1 | – | inactive: -31.7%
61 | Cc1ccc(-c2nnc(-c3cccc(Br)c3)o2)cc1 | inconclusive: 6.31 µM [activator, single point] | –
62 | O=C(Nc1ccc(NC(=O)C2CC2)cn1)c1ccccc1 | inconclusive: 11.2 µM [inhibitor, single point] | –
63 | COC(=O)c1cc(-c2cccs2)nn1-c1ccccc1 | inconclusive: 7.08 µM [inhibitor, partial curve, poor fit] | –
64 | C/C(=N\c1nc2ccccc2n1C)c1cc(Cl)ccc1O | inconclusive: 3.16 µM [inhibitor, single point] | –
65 | Cc1cccc(OC(C)C(=O)NCC2(N(C)C)CCCCC2)c1C (stereo not drawn) | inconclusive: 35.5 µM [inhibitor, single point] | –
66 | Cc1cccc(OCCNc2ccc([N+](=O)[O-])cn2)c1 | inconclusive: 35.5 µM [inhibitor, single point] | –
67 | Cc1ccc(-c2cc(C(=O)N/N=C/c3c[nH]c4ccccc34)[nH]n2)cc1 | inconclusive: 6.31 µM [inhibitor, full curve, poor fit] | –
68 | C=CCN(c1ccc(C(=O)Nc2cccc(C)c2)cc1)S(C)(=O)=O | – | inactive: -0.477% [at 46.1 µM]
